Record: PubChem BioAssay AID1259308 (NCATS, 2017)
This is a random part of about 59,000 reagents. In the full data, about 1,510 (2.6%) got an active call. 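Calls use total luciferase alone and ignore viability, so some active siRNAs may act by altering cell number.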 The numbers tell different reagents against one gene apart. Not all columns of the deposit are shown.

- Purpose: 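Genes whose loss raises luciferase production in HEK293 cells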 (primary screen)
- Cells: human HEK293 embryonic kidney cells stably expressing firefly luciferase (HEK-CMV-Luc2-Hygro)
- Knock-down reagent: single siRNA against human genes, 0.8 pmol siRNA per well
- Duration: 72 h
- Measurement: 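Reporter luminescence and viable-cell signal on separate replicate plates, given as percent of non-targeting control and median/MAD z-scores, plus per-cell luciferase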
- Scale: total luciferase, z-score: higher = more reporter protein produced
- Hit rule: 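An siRNA counts as active if its total luciferase robust z-score exceeds 3; genes with two or more such siRNAs out of three were retested with fresh siRNAs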
- Calls: active = raised luciferase; inactive = no rise

PCYOX1 (prenylcysteine oxidase 1) #1 — total luciferase, z-score = 0.438; Call = inactive
PCYOX1 (prenylcysteine oxidase 1) #2 — total luciferase, z-score = -0.803; Call = inactive
PCYOX1 (prenylcysteine oxidase 1) #3 — total luciferase, z-score = -0.96; Call = inactive
EPS15 (epidermal growth factor receptor pathway substrate 15) #1 — total luciferase, z-score = -0.444; Call = inactive
EPS15 (epidermal growth factor receptor pathway substrate 15) #2 — total luciferase, z-score = 0.133; Call = inactive
EPS15 (epidermal growth factor receptor pathway substrate 15) #3 — total luciferase, z-score = 0.918; Call = inactive
PTGER4 (prostaglandin E receptor 4) #1 — total luciferase, z-score = 1.37; Call = inactive
PTGER4 (prostaglandin E receptor 4) #2 — total luciferase, z-score = -0.00338; Call = inactive
PTGER4 (prostaglandin E receptor 4) #3 — total luciferase, z-score = 0.136; Call = inactive
CSF3R (colony stimulating factor 3 receptor) #1 — total luciferase, z-score = 1.13; Call = inactive
CSF3R (colony stimulating factor 3 receptor) #2 — total luciferase, z-score = 1.09; Call = inactive
CSF3R (colony stimulating factor 3 receptor) #3 — total luciferase, z-score = -2.58; Call = inactive

The list goes on (3 carried over from the part before).
CSF3R (colony stimulating factor 3 receptor) #1 — total luciferase, z-score = 1.13; Call = inactive
CSF3R (colony stimulating factor 3 receptor) #2 — total luciferase, z-score = 1.09; Call = inactive
CSF3R (colony stimulating factor 3 receptor) #3 — total luciferase, z-score = -2.58; Call = inactive
FREM2 (FRAS1 related extracellular matrix 2) #1 — total luciferase, z-score = -0.66; Call = inactive
FREM2 (FRAS1 related extracellular matrix 2) #2 — total luciferase, z-score = -0.506; Call = inactive
FREM2 (FRAS1 related extracellular matrix 2) #3 — total luciferase, z-score = -0.447; Call = inactive
SEC24C (SEC24 homolog C, COPII component) #1 — total luciferase, z-score = 0.324; Call = inactive
SEC24C (SEC24 homolog C, COPII component) #2 — total luciferase, z-score = 1.27; Call = inactive
SEC24C (SEC24 homolog C, COPII component) #3 — total luciferase, z-score = -0.376; Call = inactive
SHARPIN (SHANK associated RH domain interactor) #1 — total luciferase, z-score = 0.893; Call = inactive
SHARPIN (SHANK associated RH domain interactor) #2 — total luciferase, z-score = -0.299; Call = inactive
SHARPIN (SHANK associated RH domain interactor) #3 — total luciferase, z-score = 0.761; Call = inactive
NAAA (N-acylethanolamine acid amidase) #1 — total luciferase, z-score = -0.136; Call = inactive
NAAA (N-acylethanolamine acid amidase) #2 — total luciferase, z-score = 0.339; Call = inactive
NAAA (N-acylethanolamine acid amidase) #3 — total luciferase, z-score = -0.0128; Call = inactive
MSI1 (musashi RNA binding protein 1) #1 — total luciferase, z-score = -0.419; Call = inactive
MSI1 (musashi RNA binding protein 1) #2 — total luciferase, z-score = 2.49; Call = inactive
MSI1 (musashi RNA binding protein 1) #3 — total luciferase, z-score = 2.13; Call = inactive
ACSM2B (acyl-CoA synthetase medium chain family member 2B) #1 — total luciferase, z-score = -0.622; Call = inactive
ACSM2B (acyl-CoA synthetase medium chain family member 2B) #2 — total luciferase, z-score = 0.679; Call = inactive
ACSM2B (acyl-CoA synthetase medium chain family member 2B) #3 — total luciferase, z-score = 0.18; Call = inactive
IQGAP2 (IQ motif containing GTPase activating protein 2) #1 — total luciferase, z-score = 1.99; Call = inactive
IQGAP2 (IQ motif containing GTPase activating protein 2) #2 — total luciferase, z-score = -0.486; Call = inactive
IQGAP2 (IQ motif containing GTPase activating protein 2) #3 — total luciferase, z-score = -0.215; Call = inactive
